Paper PMC12504691
Results are given in words; binding and its absence hold for the method and conditions named. Binding seen in cells or lysates may run through a third protein. Here binding means that the protein was enriched with, or labelled near, the bait; the list need not be complete.

Molecular target: Estrogen receptor alpha (ESR1) (UniProt P03372)
Test: affinity purification with mass spectrometry; ESR1 immunoprecipitation compared with vector IP and ESR1 with MG132 treatment, MCF7 ESR1 overexpression model; mass spectrometry of the precipitates

## SQSTM1 (p62) (from UniProt Q13501 1-440)
  binding: binds
